Literature values in patent US20070004674A1, “Remedy for diseases associated with immunoglobulin gene translocation” (Kyowa Hakko Kogyo Co. Ltd., priority 2003, published 2007).
At least one structure is not confirmed: it was looked up by name or label, or the drawing left a doubt.

System: multiple myeloma cell lines and multiple myeloma cells obtained from patients
Details: various multiple myeloma cell lines and patient cells; Blood, 98, 1587 (2001); cited from earlier work

COC1=C2C[C@@H](C)C[C@H](OC)[C@H](O)[C@@H](C)/C=C(\C)[C@H](OC(N)=O)[C@@H](OC)/C=C\C=C(/C)C(=O)NC(=CC1=O)C2=O [geldanamycin]
growth of multiple myeloma cells: inhibits growth
